# The list shows a part of the results. Further columns of the screen follow, without active or inactive calls. The list favours compounds with an active or inconclusive main result. The note in brackets gives the kind of curve behind each potency; many fits are weak.
# Experiment: qHTS Assay for Lipid Storage Modulators in Drosophila S3 Cells;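 as to cell number change: cells counted by Cell Tracker Red CMTPX staining in the red channel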
# Settings: BODIPY lipid droplet fluorescence, 18-24 h; for cell number change: measured here: cell count max response, cells fed with added oleic acid
# How it was run: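 Laser-scanning cytometry quantifies lipid droplet accumulation (500–530 nm total intensity; droplet/cell object ratio) in oleic acid-fed (400 uM added) Drosophila S3 cells treated with a concentration series. 20 uM Triacsin C defined 100% inhibition.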
# [1] = measured here: cell number channel AC50, cells fed with added oleic acid
# [2] = measured here: lipid fluorescence (Fed channel) AC50, cells fed with added oleic acid
smiles,measurement,setting,value
CC(C)NC(=O)CCCn1cc([N+](=O)[O-])cn1,cell number change,,32.1%
same,AC50,[1],"5.8 µM [rising, single point]"
Cc1ccc(NC(=O)c2cc3ccccc3oc2=N)cc1,cell number change,,18.6%
same,AC50,[2],"0.0517 µM [rising, full curve, poor fit]"
O=C(COC(=O)CNC(=O)c1ccc(Br)o1)Nc1ccc2c(c1)OCCO2,cell number change,,-1.43%
same,AC50,[2],"29.1 µM [rising, single point]"
Cc1ccc(SCC(=O)OCC(=O)NCCc2ccccc2)cc1,cell number change,,21.9%
same,AC50,[1],"0.00461 µM [rising, full curve, poor fit]"
same,AC50,[2],"0.00731 µM [rising, full curve, poor fit]"
COc1cc(-c2nc3c4ccccc4nc(=S)n3[nH]2)cc(OC)c1OC,cell number change,,-38.5%
same,AC50,[1],"8.2 µM [falling, partial curve, poor fit]"
same,AC50,[2],"5.8 µM [falling, partial curve]"
CSCCC(NS(=O)(=O)c1cccs1)C(=O)NCc1ccc(C)cc1 (stereo not drawn),cell number change,,-9.39%
same,AC50,[2],"0.58 µM [rising, full curve, poor fit]"
CCNc1nc(NCC)nc(N(C)N)n1,AC50,[2],"0.58 µM [rising, single point]"
Cc1ccc(Nc2nnc(SCc3cc(=O)n4ccsc4n3)s2)c(C)c1,cell number change,,3.43%
same,AC50,[2],"0.517 µM [rising, full curve]"
COc1ccc(/C=N/Nc2nncn2N)cc1Br,cell number change,,-4.4%
same,AC50,[2],"29.1 µM [falling, single point]"
COc1ccccc1Oc1cc(-n2nc(C)cc2C)ncn1,cell number change,,-38.7%
same,AC50,[1],"3.26 µM [falling, full curve]"
same,AC50,[2],"2.91 µM [rising, single point]"
COc1ccc(OC)c(CNC(=O)CCCn2ccc3cc(S(=O)(=O)N4CCCC4)ccc32)c1,cell number change,,4.2%
same,AC50,[2],"0.103 µM [falling, full curve, poor fit]"
Cc1ccc(S(=O)(=O)N2CCN(C(=O)c3cc4c(s3)CCC(C)C4)CC2)cc1 (stereo not drawn),cell number change,,-7.5%
O=C(CCl)Nc1nc(-c2ccco2)c(-c2ccco2)s1,cell number change,,83.3%
same,AC50,[1],"0.411 µM [rising, full curve]"
O=C(NNc1ccc(Cl)cc1)c1c(F)cccc1Cl,cell number change,,-42.9%
same,AC50,[1],"32.6 µM [falling, single point]"
COCCN(C(=O)COC(=O)CNC(=O)c1cccs1)c1c(N)n(Cc2ccccc2)c(=O)[nH]c1=O,cell number change,,-31.6%
same,AC50,[1],"0.92 µM [falling, full curve, poor fit]"
CC(=O)Nc1ccc(C(=O)OCC(=O)Nc2ccccc2Sc2ccccc2)cc1,cell number change,,45.6%
same,AC50,[1],"7.31 µM [rising, partial curve]"
same,AC50,[2],"8.2 µM [rising, partial curve]"
COc1ccc(-n2c(COc3ccc(Cl)cc3)nnc2SCc2ccc(C#N)cc2)cc1,cell number change,,-13.2%
same,AC50,[2],"1.46 µM [rising, full curve]"
N=c1c2c(ncn1CCN1CCOCC1)Oc1ccc3ccccc3c1C2c1ccccc1 (stereo not drawn),AC50,[1],"5.17 µM [rising, single point]"
same,AC50,[2],"3.26 µM [rising, partial curve]"
CCn1c(N2CCN(CC(=O)c3c[nH]c4ccccc34)CC2)nc2c1c(=O)[nH]c(=O)n2C,cell number change,,0.769%
same,AC50,[2],"0.116 µM [rising, single point]"
COc1ccc(N2C(=O)N3[C@H](c4ccc(Cl)cc4)[C@@H]4C(=O)N(C5CCCCC5)C(=O)[C@@H]4[C@]3(C)C2=O)cc1,cell number change,,22.2%
CCOc1cc(/C=N\NC(=O)C2C(=O)NCC2c2ccccc2)ccc1OC (stereo not drawn),cell number change,,49%
same,AC50,[1],"29.1 µM [rising, single point]"
O=C(NC(=S)Nc1cccc(Cl)c1N1CCCC1)c1ccc(-c2cccc([N+](=O)[O-])c2)o1,cell number change,,59.6%
same,AC50,[1],"16.4 µM [rising, single point]"
CSc1nnc(CCNS(=O)(=O)c2ccccc2Br)n1C,cell number change,,11.2%
Cc1ccc(COc2ccc(Br)cc2/C=N/O)cc1,cell number change,,-22.9%
same,AC50,[1],"0.92 µM [rising, full curve, poor fit]"
same,AC50,[2],"23.1 µM [falling, single point]"
c1ccc(CNc2nc(-c3cccs3)nc3ccccc23)nc1,cell number change,,-2.84%
same,AC50,[2],"29.1 µM [rising, partial curve, poor fit]"
CC(C)c1ccc(/C=C/C(=O)NC2=NCCS2)cc1,cell number change,,-27%
same,AC50,[2],"0.291 µM [rising, partial curve, poor fit]"
CCCCNS(=O)(=O)c1ccc2nc(-c3cccnc3)cc(C(=O)NCC(OC)OC)c2c1,cell number change,,55.6%
same,AC50,[1],"10.3 µM [rising, partial curve, poor fit]"
same,AC50,[2],"23.1 µM [rising, single point]"
O=C(Cc1ccccc1[N+](=O)[O-])NCc1ccncc1,cell number change,,-33.5%
Cc1ccc(NC(=O)c2c(C)nc3ccccn23)cc1C,cell number change,,27.9%
CCOC(=O)N1CCN(C(=O)CCCOc2ccccc2)CC1,cell number change,,1.52%
CCOc1ccccc1NC(=O)CC1SC(=N)N(c2ccccc2)C1=O (stereo not drawn),cell number change,,-14.9%
same,AC50,[2],"13 µM [falling, partial curve, poor fit]"
O=Cc1ccc(-c2ccc(C(=O)O)cc2)o1,cell number change,,-34.2%
same,AC50,[1],"0.0206 µM [falling, full curve]"
same,AC50,[2],"0.13 µM [falling, full curve, poor fit]"
CC(C)(C)OC(=O)NNC(=O)c1ccc(Cl)cc1,cell number change,,-69.8%
same,AC50,[1],"18.4 µM [falling, single point]"
O=C(OCC(=O)N1CCCC1)c1c2c(nc3ccccc13)CCCCC2,cell number change,,34.6%
same,AC50,[1],"5.17 µM [rising, full curve, poor fit]"
same,AC50,[2],"5.17 µM [rising, full curve, poor fit]"
COc1cc(C(=O)NCCN=C2NS(=O)(=O)c3ccccc32)cc(OC)c1OC,cell number change,,-19.2%
same,AC50,[2],"23.1 µM [falling, partial curve, poor fit]"
O=C(CSc1nnc(CNC(=O)c2ccc(F)cc2)o1)Nc1ccc2c(c1)OCCO2,cell number change,,37.3%
same,AC50,[1],"16.4 µM [rising, partial curve, poor fit]"
CCOc1ccc(-c2n[nH]c(C)c2-c2ccccn2)c(O)c1,cell number change,,58.2%
same,AC50,[1],"29.1 µM [rising, single point]"
Cc1ccc(-n2nc3c(c2NC(=O)C2CC2)CS(=O)(=O)C3)cc1C,cell number change,,43.5%
same,AC50,[1],"23.1 µM [rising, single point]"
same,AC50,[2],"23.1 µM [rising, single point]"
Cc1ccc(C2C(C#N)=C(N)Oc3cc(N)ccc32)cc1 (stereo not drawn),cell number change,,-20.5%
O=S(=O)(NCc1ccccc1)c1ccc(NC(=S)NCc2ccco2)cc1,cell number change,,-26.7%
same,AC50,[2],"29.1 µM [falling, single point]"
COc1ccccc1/C=C1\SC(=S)N(N2C(=O)CCCC2=O)C1=O,cell number change,,-5.71%
same,AC50,[2],"1.16 µM [falling, single point]"
Cc1n[nH]c(=S)n1-c1cccc(Cl)c1,AC50,[1],"6.51 µM [rising, single point]"
same,AC50,[2],"18.4 µM [rising, single point]"
COC(=O)NNC(=O)c1ccccc1C,AC50,[2],"23.1 µM [falling, partial curve]"
CCN(CC(=O)Nc1ccc(Br)cc1)C(=O)Cc1cccc(F)c1,cell number change,,7.83%
CC(=O)Nc1ccc(/C=N/Nc2nc3ccccc3[nH]2)cc1,cell number change,,-14.9%
same,AC50,[2],"29.1 µM [falling, single point]"
COc1nc(-c2ccccc2)ncc1S(=O)(=O)c1ccccc1,cell number change,,-32%
Cn1cccc1C(=O)OCc1csc(-c2ccccc2)n1,cell number change,,-14.1%
same,AC50,[2],"0.0651 µM [falling, full curve, poor fit]"
Cc1cccn2c(=O)nc(SCC(=O)Nc3ccc4c(c3)OCCO4)nc12,cell number change,,42.2%
same,AC50,[1],"0.82 µM [rising, full curve, poor fit]"
CC(C)Cc1cc(C(=O)NCCc2ccccc2)no1,cell number change,,-11.1%
same,AC50,[2],"5.8 µM [falling, full curve]"
COc1ccc(NC(=O)c2cc3c(CO)cnc(C)c3oc2=Nc2cccc(C)c2)c(OC)c1,cell number change,,-2.78%
COc1ccc(N2CCN(C(CNC(=O)C(=O)NCc3cccs3)c3ccco3)CC2)cc1 (stereo not drawn),cell number change,,-15.6%
same,AC50,[1],"0.0058 µM [falling, full curve, poor fit]"
O=C(CN1C(=O)c2cccnc2Oc2ccc(Cl)cc21)NC1CCCC1,cell number change,,9.27%
same,AC50,[2],"0.731 µM [falling, full curve]"
O=C(CCN1CCOCC1)NC1CCCN(Cc2ccccc2F)C1 (stereo not drawn),cell number change,,4.33%
COc1ccccc1C(=O)Nc1cccc(NC(=O)c2ccccc2OC)n1,cell number change,,-2.05%
same,AC50,[2],"3.26 µM [falling, full curve]"
CC(C)OP(=O)(OC(C)C)C(Nc1ccccc1)c1cccnc1 (stereo not drawn),cell number change,,-0.819%
same,AC50,[2],"29.1 µM [falling, single point]"
CS(=O)(=O)N(CC(=O)N1CCCCC1)Cc1ccccc1,cell number change,,-18.2%
same,AC50,[2],"1.46 µM [falling, partial curve]"
CCc1cc2c(=O)c(-c3ccc(F)cc3)c(C(F)(F)F)oc2cc1OCC(=O)O,cell number change,,128%
same,AC50,[1],"29.1 µM [rising, single point]"
same,AC50,[2],"29.1 µM [rising, single point]"
CCOC(=O)c1c(C)[nH]c(C(=O)N/N=C/c2cc([N+](=O)[O-])ccc2O)c1C,cell number change,,50%
same,AC50,[1],"3.26 µM [rising, full curve]"
COc1ccc(-c2cc3cc(-c4cc(OC)c(OC)c(OC)c4)ccc3o2)cc1,cell number change,,-1.58%
CCN1CCCC1CNC(=O)CN(C)S(=O)(=O)c1ccc(Cl)cc1 (stereo not drawn),cell number change,,2.1%
Cc1c(NC(=O)CCC(=O)N2CCCCC2)c(=O)n(-c2ccccc2)n1C,cell number change,,4.23%
same,AC50,[2],"29.1 µM [falling, single point]"
COc1ccc(/C=C/c2nnc(NC(=O)COc3cccc(C)c3)s2)cc1,cell number change,,-3.37%

# In a second layout: results already given
smiles	measurement	setting	value
Cc1cccn2c(=O)nc(SCC(=O)Nc3ccc4c(c3)OCCO4)nc12	cell number change		42.2%
same	AC50	[1]	0.82 µM [rising, full curve, poor fit]
CC(C)Cc1cc(C(=O)NCCc2ccccc2)no1	cell number change		-11.1%

# 6 records drawn at random from those above, as already listed:
smiles,measurement,setting,value
O=C(CN1C(=O)c2cccnc2Oc2ccc(Cl)cc21)NC1CCCC1,cell number change,,9.27%
COc1ccc(-c2cc3cc(-c4cc(OC)c(OC)c(OC)c4)ccc3o2)cc1,cell number change,,-1.58%
COc1ccc(N2C(=O)N3[C@H](c4ccc(Cl)cc4)[C@@H]4C(=O)N(C5CCCCC5)C(=O)[C@@H]4[C@]3(C)C2=O)cc1,cell number change,,22.2%
CCCCNS(=O)(=O)c1ccc2nc(-c3cccnc3)cc(C(=O)NCC(OC)OC)c2c1,cell number change,,55.6%
CSCCC(NS(=O)(=O)c1cccs1)C(=O)NCc1ccc(C)cc1 (stereo not drawn),cell number change,,-9.39%
Cc1ccc(-n2nc3c(c2NC(=O)C2CC2)CS(=O)(=O)C3)cc1C,AC50,[1],"23.1 µM [rising, single point]"
